Experimental data from PubChem BioAssay AID292 (DTP/NCI, 2004).
The list shows only some results of the screen, not a fair sample: it is rich in T/C values a quarter to a half above the control, in often repeated tests (any T/C) and in doses without a T/C. Other doses and runs of a compound stand elsewhere. T/C: endpoint of the treated group in % of that of the vehicle group. Some doses have a count of surviving animals in place of a T/C: the source holds a T/C of zero for them, seemingly a mark for toxic or unscored doses. Some doses without a T/C left all or most animals alive at the check, yet need not have been tolerated: the source hardly ever lists a survival T/C far under the control, and the zero likely stands for such cases as well. Survivors were counted at the toxicity check, usually on the fifth day, unless a day is given; later deaths do not show. Schedule codes are those of the source, read here as Q, the interval in days (D) or hours (H), X, the number of doses. Brackets with × count equal records among those shown. Some doses were run more than once; the values are given in rising order. Some structures stand for samples that the source files as different forms (salt, stereo form or complex); doses refer to the form tested. Where survival is the endpoint, the PubChem record calls one and a half times the control and up active, and a quarter to a half above the control has no call in these data; cut-offs in other NCI protocols can differ. Some T/C values are followed by the survivors on the day toxicity was checked, most often the fifth; where none is given, no animal had died by that day.

System: B6C3F1 mice, ip Sarcoma M5076, median survival T/C
Experiment: NCI In Vivo Anticancer Drug Screen. Data for tumor model Sarcoma M5076 (intraperitoneal) in B6C3F1 mice
Settings: T/C endpoint: median survival time, higher T/C = longer survival
In short: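 Mice carrying the transplanted tumour received compound treatment. Survival was recorded, and each value is the treated-group measurement divided by that of the vehicle-dosed control group.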

[1] = dose: 400.0 mg/kg/injection, schedule: Q04DX004 (ip), vehicle: saline with Tween-80
[2] = dose: 800.0 mg/kg/injection, schedule: Q04DX004 (ip), vehicle: saline with Tween-80
[3] = dose: 100.0 mg/kg/injection, schedule: Q04DX004 (ip), vehicle: Klucel (hydroxypropylcellulose) (HPC)
[4] = dose: 200.0 mg/kg/injection, schedule: Q04DX004 (ip), vehicle: Klucel (hydroxypropylcellulose) (HPC)
[5] = dose: 400.0 mg/kg/injection, schedule: Q04DX004 (ip), vehicle: Klucel (hydroxypropylcellulose) (HPC)
[6] = dose: 800.0 mg/kg/injection, schedule: Q04DX004 (ip), vehicle: Klucel (hydroxypropylcellulose) (HPC)
[7] = dose: 100.0 mg/kg/injection, schedule: Q04DX004 (ip), vehicle: saline with Tween-80
[8] = dose: 200.0 mg/kg/injection, schedule: Q04DX004 (ip), vehicle: saline with Tween-80
[9] = dose: 50.0 mg/kg/injection, schedule: Q04DX004 (ip), vehicle: saline with Tween-80
[10] = dose: 50.0 mg/kg/injection, schedule: Q04DX004 (ip), vehicle: Klucel (hydroxypropylcellulose) (HPC)
[11] = dose: 200.0 mg/kg/injection, schedule: Q04DX004 (ip), vehicle: water

## Clc1ccc(-c2noc(CN3CCCCC3)n2)cc1
[1]
  survivor count: 5 of 10 on day 14
[2]
  survivor count: 0 of 10 on day 14

## CNC(=O)OCc1nc(SC)n(C)c1COC(=O)NC
dose: 100.0 mg/kg/injection, schedule: Q04DX004 (ip), vehicle: suspension in saline
  T/C: 148 % of control
dose: 400.0 mg/kg/injection, schedule: Q04DX004 (ip), vehicle: saline
  survivor count: 1 of 10 on day 14
dose: 400.0 mg/kg/injection, schedule: Q04DX004 (ip), vehicle: suspension in saline
  survivor count: 0 of 10 on day 14

## CC1C(c2ccccc2)OC(N2CCOCC2)C(C)(C)CN1C (centres undefined)
dose: 1200.0 mg/kg/injection, schedule: Q04DX004 (ip), vehicle: saline with Tween-80
  survivor count: 0 of 10 on day 14

## C[C@]12C=CC(=O)C=C1CC[C@@H]1[C@@H]2C(=O)C[C@@]2(C)[C@H]1CC[C@]2(O)C(=O)CO
[3]
  T/C: 147 % of control
[4]
  T/C: 125 % of control
[5]
  survivor count: 10 of 10 on day 9
[6]
  survivor count: 3 of 10 on day 9

## [NH-]C(CCC(N)=O)C(=O)O.[NH-]C(CCC(N)=O)C(=O)O.[Zn+2] (centres undefined)
[7]
  survivor count: 0 of 10 on day 14
[8]
  survivor count: 0 of 10 on day 14

## c1ccc2c(c1)oc1cc3c(cc12)ncc1cccn13
[9]
  survivor count: 9 of 10 on day 14
[7]
  survivor count: 6 of 10 on day 14

## CC/C(=C(\c1ccccc1)c1ccc(OCCN(C)C)cc1)c1ccccc1
[3]
  survivor count: 10 of 10 on day 14 (2×)
[4]
  survivor count: 9 of 10 on day 14 and 10 of 10 on day 14
[5]
  survivor count: 2 of 10 on day 14
[6]
  survivor count: 0 of 10 on day 14

## O=C(Nc1cccc(NC(=O)c2nn[nH]n2)n1)c1nn[nH]n1
[5]
  survivor count: 8 of 10 on day 14
[6]
  survivor count: 4 of 10 on day 14

## O=C(Nc1cc(Cl)ccc1C(=O)O)c1cccc(C[n+]2ccccc2)c1
[2]
  survivor count: 1 of 10 on day 14

## COc1ccc(CCN2C(=O)C(=O)N(C(C)C)C2=O)cc1OC
dose: 25.0 mg/kg/injection, schedule: Q04DX004 (ip), vehicle: Klucel (hydroxypropylcellulose) (HPC)
  survivor count: 10 of 10 on day 14
[10]
  survivor count: 10 of 10 on day 14
[3]
  survivor count: 10 of 10 on day 14
[4]
  survivor count: 10 of 10 on day 14
[5]
  survivor count: 9 of 10 on day 14

## CN1CCc2c(c3ccccc3c3ccccc23)C1
dose: 300.0 mg/kg/injection, schedule: Q04DX004 (ip), vehicle: Klucel (hydroxypropylcellulose) (HPC)
  survivor count: 0 of 10 on day 14
dose: 600.0 mg/kg/injection, schedule: Q04DX004 (ip), vehicle: Klucel (hydroxypropylcellulose) (HPC)
  survivor count: 0 of 10 on day 14
dose: 1200.0 mg/kg/injection, schedule: Q04DX004 (ip), vehicle: Klucel (hydroxypropylcellulose) (HPC)
  survivor count: 0 of 10 on day 14

## COc1cc2c(c3c1c(=O)c1cccc(F)c1n3C)C=CC(C)(C)O2
[4]
  T/C: 129 % of control
[5]
  survivor count: 8 of 10 on day 14
[6]
  survivor count: 0 of 10 on day 14

## Clc1ccccc1C(Cc1c(Cl)cccc1Cl)Cn1ccnc1 (centres undefined)
[8]
  survivor count: 1 of 10 on day 14

## COc1ncc(Br)cc1C(=O)NCCc1ccc(S(=O)(=O)NC(=O)NC2CCCCC2)cc1
[7]
  survivor count: 6 of 10 on day 14
[8]
  survivor count: 2 of 10 on day 14

## Cn1cc(NC(=O)c2cc(NC(=O)c3cc(NC=O)cn3C)cn2C)cc1C(=O)NCCC(=N)N
[11]
  survivor count: 6 of 10 on day 14

## CC1(C)C(=O)NC(=O)c2ccccc21
[10]
  survivor count: 3 of 10 on day 14
[3]
  survivor count: 0 of 10 on day 14
[4]
  survivor count: 0 of 10 on day 14
[5]
  survivor count: 0 of 10 on day 14

## NC1=NCc2c(sc3c2CCCC3)N1
[4]
  survivor count: 0 of 10 on day 14

## Oc1c(Cl)cc(Cl)cc1C1Nc2ccccc2-n2cccc21 (centres undefined)
[7]
  survivor count: 10 of 10 on day 14
[8]
  survivor count: 10 of 10 on day 14

## C[C@H](N)C(=O)N[C@@H]1[C@H]2C(=C(O)C[C@@H](O)[C@@H]2O)C(=O)O[C@]1(C)C(Cl)Cl
dose: 0.75 mg/kg/injection, schedule: Q04DX004 (ip), vehicle: saline
  T/C: 128 % of control
dose: 1.3 mg/kg/injection, schedule: Q04DX004 (ip), vehicle: saline
  T/C: 137 % of control
dose: 1.5 mg/kg/injection, schedule: Q04DX004 (ip), vehicle: saline
  T/C: 140 % of control
dose: 3.0 mg/kg/injection, schedule: Q04DX004 (ip), vehicle: saline
  T/C: 138 % of control
dose: 12.0 mg/kg/injection, schedule: Q04DX004 (ip), vehicle: saline
  survivor count: 3 of 10 on day 14

## CCOC(=O)Nc1cc2c(c(N)n1)N=C(c1ccc3ccccc3c1)CN2
dose: 60.0 mg/kg/injection, schedule: Q04DX004 (ip), vehicle: saline with Tween-80
  survivor count: 0 of 10 on day 14

## CN(C)CCNC1=C(Cl)C(=O)c2ccccc2C1=O
dose: 24.0 mg/kg/injection, schedule: Q04DX004 (ip), vehicle: saline
  survivor count: 2 of 10 on day 14
dose: 25.0 mg/kg/injection, schedule: Q04DX004 (ip), vehicle: saline
  survivor count: 0 of 10 on day 14
dose: 50.0 mg/kg/injection, schedule: Q04DX004 (ip), vehicle: saline
  survivor count: 0 of 10 on day 14
dose: 100.0 mg/kg/injection, schedule: Q04DX004 (ip), vehicle: saline
  survivor count: 0 of 10 on day 14
dose: 200.0 mg/kg/injection, schedule: Q04DX004 (ip), vehicle: saline
  survivor count: 0 of 10 on day 14

## C=C1c2cccc(O)c2C(O)=C2C(=O)[C@]3(O)C(O)=C(C(N)=O)C(=O)[C@@H](N(C)C)[C@@H]3[C@@H](O)[C@H]12
[4]
  survivor count: 1 of 10 on day 14

## Cc1c(N)nc([C@H](CC(N)=O)NC[C@H](N)C(N)=O)nc1C(=O)N[C@H](C(=O)N[C@H](C)[C@@H](O)[C@H](C)C(=O)N[C@H](C(=O)NCCc1nc(-c2nc(C(=O)NCCC[S+](C)C)cs2)cs1)[C@@H](C)O)C(OC1OC(CO)C(O)C(O)C1OC1OC(CO)C(O)C(OC(N)=O)C1O)c1cnc[nH]1 (some centres undefined)
dose: 80.0 mg/kg/injection, schedule: Q04DX004 (ip), vehicle: saline
  survivor count: 2 of 10 on day 14

## O=C(Nc1ccccc1)c1c(O)[nH]c(=O)[nH]c1=O
[1]
  T/C: 131 [8 of 10 alive on day 14] and 138 % of control [7 of 10 alive on day 14]
[2]
  survivor count: 0 of 10 on day 14

## Cc1cc(O)c2c(c1O)C(=O)C13C(=C2O)C(=O)C2C(O)C1C1C(O)C3C(=O)C3=C(O)c4c(O)cc(C)c(O)c4C(=O)C321 (centres undefined)
dose: 25.0 mg/kg/injection, schedule: Q04DX004 (ip), vehicle: saline with Tween-80
  survivor count: 0 of 10 on day 14

## CCc1nc(N)nc(N)c1-c1ccc(Cl)c(N=[N+]=[N-])c1
dose: 67.0 mg/kg/injection, schedule: Q04DX004 (ip), vehicle: water
  survivor count: 0 of 10 on day 14
dose: 134.0 mg/kg/injection, schedule: Q04DX004 (ip), vehicle: water
  survivor count: 0 of 10 on day 14
dose: 268.0 mg/kg/injection, schedule: Q04DX004 (ip), vehicle: distilled water + Tween-80
  T/C: 141 % of control

## COC(=O)NC1C(C)OC(OC2C/C=C(/C)C3C=CC4C(OC5CC(OC6CC(O)C(OC7CC(O)C(OC)C(C)O7)C(C)O6)C(O)C(C)O5)C(C)CC(C)C4C3(C)/C(O)=C3\C(=O)OC4(CC(C)C(CO)=CC4/C=C\2C)C3=O)CC1(C)[N+](=O)[O-] (centres undefined)
[5]
  survivor count: 0 of 10 on day 14

## OC(C1CO1)C(O)C1CO1 (centres undefined)
dose: 16.0 mg/kg/injection, schedule: Q04DX005 (ip), vehicle: saline
  survivor count: 1 of 8 on day 17

## N=C(N)c1ccc(N=NNc2ccc(C(=N)N)cc2)cc1
[7]
  survivor count: 9 of 10 on day 14
[8]
  survivor count: 0 of 10 on day 14
[1]
  survivor count: 0 of 10 on day 14

## O=C1N(CCN2CCC3(CC2)OCCO3)CCN1c1cc(Cl)cc(Cl)c1
dose: 100.0 mg/kg/injection, schedule: Q04DX004 (ip), vehicle: water
  survivor count: 10 of 10 on day 14
[11]
  survivor count: 0 of 10 on day 14
dose: 400.0 mg/kg/injection, schedule: Q04DX004 (ip), vehicle: water
  survivor count: 0 of 10 on day 14

## C=C(C)[C@H]1Cc2c(ccc3c2O[C@@H]2COc4cc(OC)c(OC)cc4[C@@H]2C3=O)O1
[9]
  survivor count: 1 of 10 on day 14
[7]
  survivor count: 0 of 10 on day 14

## COc1ccc2nc(C)cc(N/N=C/c3cccnc3)c2c1
[4]
  survivor count: 0 of 10 on day 14

## CS(=O)CCN=Cc1ccc(N=Nc2ccc(O)cc2)cc1 (centres undefined)
dose: 300.0 mg/kg/injection, schedule: Q04DX004 (ip), vehicle: saline with Tween-80
  survivor count: 9 of 10 on day 14
